Experimental data published in the M2OR odorant receptor database.
The entries are a selection whose mix differs from that of the whole data set. The calls were merged from several studies; some rest on single wells. This is one part of the list.

Chains of the proteins cited; added tags and fusions are not shown. Lines headed by an entry give the natural chain unless they say otherwise; changes in a name come on top. Chains listed by the source or under a name are the forms on record and can include a tag or linker.
UniProt Q8NGI4: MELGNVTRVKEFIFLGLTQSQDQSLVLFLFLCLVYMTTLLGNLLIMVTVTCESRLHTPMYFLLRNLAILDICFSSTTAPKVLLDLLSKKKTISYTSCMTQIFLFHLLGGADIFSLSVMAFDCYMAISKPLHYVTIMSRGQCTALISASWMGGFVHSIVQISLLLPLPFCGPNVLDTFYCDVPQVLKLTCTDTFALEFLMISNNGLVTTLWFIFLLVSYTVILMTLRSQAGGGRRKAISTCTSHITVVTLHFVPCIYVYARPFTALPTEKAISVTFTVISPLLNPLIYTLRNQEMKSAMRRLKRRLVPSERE
UniProt Q8NGN0: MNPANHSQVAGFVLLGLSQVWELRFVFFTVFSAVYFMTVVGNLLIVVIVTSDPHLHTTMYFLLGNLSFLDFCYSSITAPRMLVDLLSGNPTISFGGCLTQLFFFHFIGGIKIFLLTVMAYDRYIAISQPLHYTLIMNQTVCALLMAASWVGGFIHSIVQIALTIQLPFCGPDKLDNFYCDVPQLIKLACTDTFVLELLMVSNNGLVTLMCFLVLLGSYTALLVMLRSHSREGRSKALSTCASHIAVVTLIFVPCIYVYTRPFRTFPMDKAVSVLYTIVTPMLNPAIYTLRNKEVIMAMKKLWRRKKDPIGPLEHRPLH
UniProt Q8NGE8: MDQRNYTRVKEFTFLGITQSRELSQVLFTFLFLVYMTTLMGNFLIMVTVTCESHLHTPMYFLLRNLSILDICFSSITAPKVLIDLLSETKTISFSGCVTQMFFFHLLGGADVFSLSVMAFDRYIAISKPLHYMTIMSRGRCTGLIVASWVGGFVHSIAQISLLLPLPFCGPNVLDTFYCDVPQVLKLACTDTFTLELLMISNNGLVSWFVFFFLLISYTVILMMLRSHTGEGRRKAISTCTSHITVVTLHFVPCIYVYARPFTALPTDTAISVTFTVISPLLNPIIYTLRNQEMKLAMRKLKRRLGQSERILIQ
OR4D1, as listed by the source: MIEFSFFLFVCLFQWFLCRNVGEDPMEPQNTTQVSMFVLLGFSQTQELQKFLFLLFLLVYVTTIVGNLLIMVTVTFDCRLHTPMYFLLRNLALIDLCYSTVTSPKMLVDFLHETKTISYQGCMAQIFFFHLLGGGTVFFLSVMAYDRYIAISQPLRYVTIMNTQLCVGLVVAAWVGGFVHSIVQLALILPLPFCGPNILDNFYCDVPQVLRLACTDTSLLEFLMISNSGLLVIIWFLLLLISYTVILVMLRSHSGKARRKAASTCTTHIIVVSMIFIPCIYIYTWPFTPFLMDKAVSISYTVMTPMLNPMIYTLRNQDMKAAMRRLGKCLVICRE
OR4D6, as listed by the source: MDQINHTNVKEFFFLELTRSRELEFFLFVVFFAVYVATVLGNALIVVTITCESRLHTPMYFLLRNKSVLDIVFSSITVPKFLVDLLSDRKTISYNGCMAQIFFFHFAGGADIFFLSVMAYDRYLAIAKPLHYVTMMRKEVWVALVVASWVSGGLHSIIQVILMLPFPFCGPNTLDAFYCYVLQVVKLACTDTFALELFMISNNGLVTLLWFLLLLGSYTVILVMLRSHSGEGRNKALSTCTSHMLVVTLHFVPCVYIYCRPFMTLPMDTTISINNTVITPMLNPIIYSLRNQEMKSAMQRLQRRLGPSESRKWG
OR4D2, as listed by the source: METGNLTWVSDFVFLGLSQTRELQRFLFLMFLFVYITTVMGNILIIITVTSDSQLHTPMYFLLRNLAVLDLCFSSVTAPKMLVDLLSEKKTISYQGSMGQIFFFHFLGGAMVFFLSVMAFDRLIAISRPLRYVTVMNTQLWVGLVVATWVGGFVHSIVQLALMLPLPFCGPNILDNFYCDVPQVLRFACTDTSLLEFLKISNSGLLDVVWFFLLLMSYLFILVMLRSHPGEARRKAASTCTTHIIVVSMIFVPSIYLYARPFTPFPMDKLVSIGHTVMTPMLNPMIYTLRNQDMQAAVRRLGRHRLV

Assays:
Settings in all cases: stereoisomer not certain
OR4D11 (Homo sapiens) = OR4D11 (Homo sapiens) (UniProt Q8NGI4)
Summary of the method: (§1)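 Assay methods differ from source to source, frequently being transient luciferase assays in mammalian cell lines. For each receptor–molecule pair, the label responsive (active) applies when the original authors judged the measured signal statistically different from baseline, and non-responsive (inactive) applies otherwise.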

OR4D1 = system: OR4D1
Summary of the method: as §1

OR4D2 = system: OR4D2
Summary of the method: as §1

OR4D5 (Homo sapiens) = OR4D5 (Homo sapiens) (UniProt Q8NGN0)
Summary of the method: as §1

OR4D6 = system: OR4D6
Summary of the method: as §1

OR4D9 (Homo sapiens) = OR4D9 (Homo sapiens) (UniProt Q8NGE8)
Summary of the method: as §1

OR4E2 = system: T1, OR4E2
T1 sequence (whole entry): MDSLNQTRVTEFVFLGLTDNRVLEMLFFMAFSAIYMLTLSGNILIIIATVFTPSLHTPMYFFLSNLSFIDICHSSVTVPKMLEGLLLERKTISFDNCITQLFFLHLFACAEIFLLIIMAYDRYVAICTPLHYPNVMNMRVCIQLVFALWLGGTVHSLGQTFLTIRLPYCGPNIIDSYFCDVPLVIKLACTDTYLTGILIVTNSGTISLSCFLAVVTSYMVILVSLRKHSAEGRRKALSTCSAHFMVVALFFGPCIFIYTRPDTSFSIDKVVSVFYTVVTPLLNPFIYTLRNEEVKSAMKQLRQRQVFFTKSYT
Summary of the method: as §1

OR4F15 (Homo sapiens) = target: T2, OR4F15 (Homo sapiens) (UniProt Q8NGB8)
T2 sequence (whole entry): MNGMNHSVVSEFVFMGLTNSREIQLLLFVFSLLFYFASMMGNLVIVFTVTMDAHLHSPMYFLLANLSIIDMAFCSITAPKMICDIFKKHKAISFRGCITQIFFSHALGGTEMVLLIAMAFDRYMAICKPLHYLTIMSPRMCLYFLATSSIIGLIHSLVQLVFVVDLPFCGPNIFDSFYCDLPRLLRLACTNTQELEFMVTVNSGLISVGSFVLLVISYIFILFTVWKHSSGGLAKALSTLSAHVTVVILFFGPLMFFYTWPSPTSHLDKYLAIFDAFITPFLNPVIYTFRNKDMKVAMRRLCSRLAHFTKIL
Summary of the method: as §1

OR4F3 (Homo sapiens) = target: T3, OR4F3 (Homo sapiens) (UniProt Q6IEY1)
T3 sequence (whole entry): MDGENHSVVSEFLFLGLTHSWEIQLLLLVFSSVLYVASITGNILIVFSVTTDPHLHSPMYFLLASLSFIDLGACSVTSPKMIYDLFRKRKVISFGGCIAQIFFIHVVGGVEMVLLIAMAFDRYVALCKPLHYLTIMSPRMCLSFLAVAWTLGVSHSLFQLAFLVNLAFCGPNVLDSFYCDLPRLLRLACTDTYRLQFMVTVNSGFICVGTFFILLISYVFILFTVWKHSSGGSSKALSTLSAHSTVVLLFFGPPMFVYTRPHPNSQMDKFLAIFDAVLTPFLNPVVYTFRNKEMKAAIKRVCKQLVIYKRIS
Summary of the method: as §1

OR4F3 = system: T4, OR4F3
T4 sequence (whole entry): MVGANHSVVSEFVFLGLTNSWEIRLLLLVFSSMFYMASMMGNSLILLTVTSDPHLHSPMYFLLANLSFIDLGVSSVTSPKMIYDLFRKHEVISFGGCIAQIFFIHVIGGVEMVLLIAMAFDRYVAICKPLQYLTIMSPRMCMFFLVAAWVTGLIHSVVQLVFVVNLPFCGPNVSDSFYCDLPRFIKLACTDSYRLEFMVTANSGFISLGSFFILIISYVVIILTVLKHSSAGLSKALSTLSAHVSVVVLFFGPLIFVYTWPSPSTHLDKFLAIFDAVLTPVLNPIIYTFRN
Summary of the method: as §1

Measured: odorant receptor agonist call

CS
inactive: all assays above

CCC(C)=O
inactive: all assays above

CCCCOC(C)=O
inactive: all assays above
